# Reference: patent publication US7795390B2, “Biological substance nesfatin and its related substances and uses thereof” (Teijin Pharma Limited, priority 2005, dated 2010)
# At least one structure is not confirmed: it was looked up by name or label, or the drawing left a doubt.
# Experiments:
# [1] = test system: Zucker +/+ (Lean) rats; test: Troglitazone-containing food given to normal (Lean) rats for 10 days; type: in vivo, rat; conditions: 0.2% in powder food
# [2] = test system: Zucker fa/fa rats; test: Troglitazone-containing food given to Zucker fa/fa rats for 10 days; type: in vivo, rat; conditions: 0.2% in powder food
# [3] = test system: NEFA gene; test: Northern blotting of NEFA gene expression in HTB185 cells stimulated with troglitazone; type: cell-based, human; conditions: 10^−4 M troglitazone, 48 hours, vs cells not stimulated
# [4] = test system: NEFA gene; test: Northern blotting of NEFA gene expression in SQ-5 cells stimulated with troglitazone; type: cell-based, human; conditions: 10^−4 M TGZ, 24 hours, vs cells not stimulated
smiles,measurement,setting,value
Cc1c(C)c2c(c(C)c1O)CCC(C)(COc1ccc(CC3SC(=O)NC3=O)cc1)O2 (centres unmarked) [troglitazone],amount expressed of nesfatin in the brain (Western blotting band density),[1],no difference
same,body weight,[1]; TGZ + vs −,no marked difference
same,concentration of leptin in the blood,[1]; p<0.05,significantly decreased
same,body weight,[2]; TGZ + vs −,no marked difference
same,amount expressed of nesfatin in the brain (Western blotting band density),[2]; p<0.01,significantly increased
same,concentration of leptin in the blood,[2]; p<0.05,significantly decreased
same,expression of the NEFA gene (Northern blotting),[3],marked induction
same,expression of the NEFA gene (Northern blotting),[4],marked induction of expression of the NEFA gene
